Reference: US20250185656A1, “PIPERIDINONE DERIVATIVE OR SALT THEREOF, HARMFUL ORGANISM CONTROL AGENT CONTAINING SAID COMPOUND, AND METHOD FOR USING SAME” (ADEKA Corporation, priority 2022, published 2025)
Some results were stated once for a whole list of compounds, not compound by compound.

Each compound was assayed on L-3 stage larvae of Dirofilaria immitis (assay: Influence evaluation test on the growth of Dirofilaria immitis). Conditions: final concentration 10 μM, seven days.

SMILES | development inhibition rate (L3 stage larva to L4-stage larva)
N#CCN1CC(=O)C(C(=O)Nc2ccc(F)cc2)=C(O)C1 [Compound 1-1] | not less than 50%
O=C1CN(Cc2ccc(OC(F)(F)F)cc2)CC(O)=C1C(=O)Nc1ccc(F)cc1 [Compound 1-6] | not less than 50%
O=C1CN(Cc2ccc(C(F)(F)F)cc2)CC(O)=C1C(=O)Nc1ccc(F)cc1 [Compound 1-13] | not less than 50%
O=C1CN(Cc2ccc(Cl)nc2)CC(O)=C1C(=O)Nc1ccc(F)cc1 [Compound 1-23] | not less than 50%
Cc1cc(C(F)(F)F)nn1CC(=O)N1CC(=O)C(C(=O)Nc2ccc(F)cc2)=C(O)C1 [Compound 1-24] | not less than 50%
O=C1CN(C(=O)c2ccccc2)CC(O)=C1C(=O)Nc1ccc(F)cc1 [Compound 1-25] | not less than 50%
O=C1CN(C(=O)c2ccc(C(F)(F)F)cc2)CC(O)=C1C(=O)Nc1ccc(F)cc1 [Compound 1-26] | not less than 50%
O=C1CN(C(=O)c2ccc(C(F)(F)F)cc2)CC(O)=C1C(=O)Nc1ccc(C(F)(F)F)cc1 [Compound 1-27] | not less than 50%
CC(C)(C)OC(=O)N1CC(=O)C(C(=O)Nc2ccc(F)cn2)=C(O)C1 [Compound 1-32] | not less than 50%
N#Cc1ccc(N2CC(=O)C(C(=O)Nc3ccc(F)cc3)=C(O)C2)cc1 [Compound 1-47] | not less than 50%
O=C1CN(c2ccc(C(F)(F)F)cc2)CC(O)=C1C(=O)Nc1ccc(F)cc1 [Compound 1-48] | not less than 50%
N#Cc1ccc(N2CC(=O)C(C(=O)Nc3ccc(F)cc3)=C(O)C2)nc1 [Compound 1-52] | not less than 50%
N#Cc1ccc(N2CC(=O)C(C(=O)Nc3ccc(F)cc3)=C(O)C2)cn1 [Compound 1-55] | not less than 50%
O=C1CN(c2ccc(C(F)(F)F)nc2)CC(O)=C1C(=O)Nc1ccc(F)cc1 [Compound 1-56] | not less than 50%
O=C1CN(c2ncc(F)cn2)CC(O)=C1C(=O)Nc1ccc(F)cc1 [Compound 1-58] | not less than 50%
O=C1CN(c2cnc(Br)cn2)CC(O)=C1C(=O)Nc1ccc(F)cc1 [Compound 1-71] | not less than 50%
O=C1CN(c2nc3ncc(Cl)cc3s2)CC(O)=C1C(=O)Nc1ccc(F)cc1 [Compound 1-77] | not less than 50%
O=C1CN(c2nc3ccc(C(F)(F)F)cc3s2)CC(O)=C1C(=O)Nc1ccc(F)cc1 [Compound 1-80] | not less than 50%
N#Cc1ccc(N2CC(=O)C(C(=O)Nc3ccc(F)cc3)=C(O)C2)s1 [Compound 1-84] | not less than 50%
O=C1CN(C(=O)c2ccc(C(F)(F)F)nc2)CC(O)=C1C(=O)Nc1ccc(F)cc1 [Compound 1-154] | not less than 50%
O=C1CN(C(=O)c2ccc(C(F)(F)F)nc2)CC(O)=C1C(=O)Nc1ccc(F)cn1 [Compound 1-155] | not less than 50%
O=C1CN(C(=O)Nc2ccc(C(F)(F)F)cc2)CC(O)=C1C(=O)Nc1ccc(F)cc1 [Compound 1-156] | not less than 50%
O=C1CN(C(=O)c2ccc(C(F)(F)F)cn2)CC(O)=C1C(=O)Nc1ccc(F)cc1 [Compound 1-157] | not less than 50%
O=C1CN(C(=O)c2ccc(C(F)(F)F)cn2)CC(O)=C1C(=O)Nc1ccc(F)cn1 [Compound 1-158] | not less than 50%

Each compound was assayed on L-1 stage larvae of Dirofilaria immitis (assay: Evaluation test of influence on the movement of Dirofilaria immitis larvae). Conditions: final concentration 50 ppm, left to stand three days.

SMILES | corrected movement inhibition rate
O=C1CN(c2ccc(C(F)(F)F)c(Cl)c2)CC(O)=C1C(=O)Nc1ccc(F)cc1 [Compound 1-50] | not less than 50%
O=C1CN(S(=O)(=O)c2ccc(C(F)(F)F)cc2)CC(O)=C1C(=O)Nc1ccc(F)cc1 [Compound 1-89] | not less than 50%
